# Test results taken from PubChem BioAssay AID588331 (National Center for Advancing Translational Sciences (NCATS), 2011).
# The inconclusive results got no clear call from the source; some entries with a clear call stand among them for comparison. Potencies of inconclusive entries are doubtful fits and often do not repeat. Activity calls are given as the source filed them. Calls come from the whole dose curve; as a rule, active = well fitted inhibition curve with a large enough effect; inconclusive = small, poorly fitted or top-dose-only effect; inactive = flat fitted curve, though single readings scatter.
# System: Trypanosoma brucei 6-phosphofructokinase (PFK)
# Test: Confirmatory Assay to Find Inhibitors of T. brucei phosphofructokinase: High F6P
# Details: Kinase-Glo luminescence; series mostly up to 57.5 µM
# Excerpt: Various species of the protozoan family Trypanosomatidae are responsible for a range of serious human diseases in tropical and subtropical areas of the world. […] Many of the disorders caused by trypanosomatids are fatal if left untreated, but most currently used drugs are inefficient and toxic. […] Oxidative metabolism involving the mitochondrial tricarboxylic acid cycle and oxidative phosphorylation are repressed in these parasites, and recent RNA interference (RNAi) experiments have shown that even partial depletion of certain individual glycolytic enzymes can lead to the death of cultured parasites. One such glycolytic enzyme, phosphofructokinase (PFK), catalyzes the formation of fructose-1,6-bisphosphate (F1,6BP) and ADP from fructose-6-phosphate (F6P) and ATP, and in many metabolic circumstances makes an important contribution to the control of flux through the glycolytic pathway. As a specific glycolytic target, PFK is particularly attractive as it catalyzes the first irreversible step in glycolysis, and structural and kinetic studies have shown very substantial and essential differences from corresponding host enzymes, allowing for the discovery of parasite-selective inhibitors. A luminescent secondary assay was also performed that used luciferase-based nucleotide detection (ADP-Glo, Promega) similar to the qHTS, but that alternatively used saturating concentrations (10x Km concentrations) of ATP or F6P to determine if inhibitor potencies were shifted due to particular substrate competition. […] NIH Molecular Libraries Probe Production Network [MLPCN] NIH Chemical Genomics Center [NCGC] Grant: 1 R03 MH092153-01 PI Name: Malcolm Walkinshaw, University of Edinburgh
# Substrate buffer was dispensed into white, solid 1536-well plates at 3 uL/well in 0.1M triethanolamine (TEA) buffer, pH 8.0, containing final concentrations of 5 mM MgCl2 and 0.01% Tween20. Standard substrate buffer contained 0.5 mM fructose-6-phosphate (F6P) and 0.1 mM ATP, high ATP substrate buffer contained 0.5 mM fructose-6-phosphate (F6P) and 1mM ATP, high F6P substrate buffer contained 5mM fructose-6-phosphate (F6P) and 0.1 mM ATP, and high ATP/F6P buffer contained 5 mM fructose-6-phosphate (F6P) and 1 mM ATP. Then, 23 nl of compounds or DMSO were delivered to each well using a pin tool. One uL of T. brucei PFK (0.1 M TEA, 0.01% Tween20, 0.1% bovine serum albumin (BSA) and 1.25 nM PFK, final concentrations) was then dispensed, and plates were incubated at room temperature for 45 min. The luminescent detection reagent, Kinase-Glo Plus (Promega), was then added at 2ul/well and incubated for ten minutes at room temperature. The plates were measured on a ViewLux plate reader for luminescent signal using a clear filter with a one second exposure. The %Activity was determined from the corrected luminescence values. 1x (1.25nM) and 0x PFK enzyme controls (untreated) were included to normalize %Activity of identified inhibitors; 0x enzyme values corresponded to 100%Activity (full inhibition), while 1x PFK enzyme values were used to normalize 0% Activity (no inhibition).
row,Compound,Potency
1,COc1ccc(CC(=O)Nc2ccc(S(=O)(=O)Nc3cc(C)on3)cc2)cc1OC,inactive
2,COc1ccc(CC(=O)Nc2ccc(S(=O)(=O)Nc3cc(C)on3)cc2)cc1C,inactive
3,Cc1cc(NS(=O)(=O)c2ccc(NC(=O)Cc3cccc(Cl)c3)cc2)no1,"inconclusive: 29.1 µM [inhibitor, single point]"
4,O=C(Cc1ccc(Cl)c(Cl)c1)Nc1ccc(S(=O)(=O)Nc2cccc(O)c2)cc1,active: 14.6 µM
5,Cc1cc(NS(=O)(=O)c2ccc(NC(=O)Cc3ccc(C)c(C)c3)cc2)no1,inactive
6,Cc1cc(NS(=O)(=O)c2ccc(NC(=O)Cc3ccc(C)c(F)c3)cc2)no1,"inconclusive: 41.1 µM [inhibitor, single point]"
7,Cc1cc(NS(=O)(=O)c2ccc(NC(=O)C(C)(C)c3ccc(Cl)c(Cl)c3)cc2)no1,inactive
8,Cc1cc(NS(=O)(=O)c2ccc(NC(=O)Cc3ccc(Cl)cc3Cl)cc2)no1,"inconclusive: 36.6 µM [inhibitor, single point]"
9,Cc1cc(NS(=O)(=O)c2ccc(NC(=O)Cc3ccc4ccccc4c3)cc2)no1,"inconclusive: 32.6 µM [inhibitor, single point]"
10,Cc1cc(NS(=O)(=O)c2ccc(NC(=O)CCc3ccc(Cl)c(Cl)c3)cc2)no1,"inconclusive: 32.6 µM [inhibitor, single point]"
11,Cc1cc(NS(=O)(=O)c2cccc(NC(=O)Cc3ccc(Cl)c(Cl)c3)c2)no1,"inconclusive: 41.1 µM [inhibitor, single point]"
12,O=C(Cc1ccc(Cl)c(Cl)c1)Nc1ccc(S(=O)(=O)Nc2ccccc2)cc1,"inconclusive: 46.1 µM [inhibitor, single point]"
13,CN(C)c1cccc(NS(=O)(=O)c2ccc(NC(=O)Cc3ccc(Cl)c(Cl)c3)cc2)c1,"inconclusive: 46.1 µM [inhibitor, single point]"
14,Cc1cc(NS(=O)(=O)CCNC(=O)Cc2ccc(Cl)c(Cl)c2)no1,inactive
15,Cc1cc(NS(=O)(=O)c2ccc(NCCc3ccc(Cl)c(Cl)c3)cc2)no1,"inconclusive: 36.6 µM [inhibitor, single point]"

# Some values from above.
# Entry for `O=C(Cc1ccc(Cl)c(Cl)c1)Nc1ccc(S(=O)(=O)Nc2cccc(O)c2)cc1` under Potency: active: 14.6 µM
# Entry for `Cc1cc(NS(=O)(=O)CCNC(=O)Cc2ccc(Cl)c(Cl)c2)no1` under Potency: inactive
